In article PMC12722638 one finds binding data, which are given here for 1 substance.

Protein sequences, listed by entry. Tags and fused reporters are not part of them. Lines headed by an entry give the natural chain unless they say otherwise; changes in a name come on top.
UniProt Q13404: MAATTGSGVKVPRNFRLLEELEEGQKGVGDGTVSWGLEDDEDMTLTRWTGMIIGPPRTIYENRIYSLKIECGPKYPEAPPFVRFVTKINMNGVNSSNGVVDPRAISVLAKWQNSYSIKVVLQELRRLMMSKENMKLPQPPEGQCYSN
UniProt P40337: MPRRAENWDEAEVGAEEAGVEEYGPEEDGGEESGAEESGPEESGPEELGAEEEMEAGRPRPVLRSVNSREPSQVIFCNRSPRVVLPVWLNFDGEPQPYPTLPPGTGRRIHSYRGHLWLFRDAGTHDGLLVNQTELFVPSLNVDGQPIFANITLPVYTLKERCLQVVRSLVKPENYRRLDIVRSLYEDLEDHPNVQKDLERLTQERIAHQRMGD

No constants are given. Whether binding was seen depends on the method and setting. Binding seen in cells or lysates may run through a third protein. These calls come from enrichment with a bait or labelling near it, and not all partners need be listed.

For the assay, the target named is Flag-UBE2V1 (ubiquitin conjugating enzyme E2 variant 1) (UniProt Q13404). The assay can be described thus: affinity purification with mass spectrometry; IP of Flag-UBE2V1; gel bands digested with trypsin, LC-MS/MS on a timsTOF Pro; cells not named.

Take “von Hippel-Lindau (VHL) protein, endogenous (from UniProt P40337 1-213)”: the binding entry was “binds”.
